These results are taken from PubChem BioAssay AID1508600 (Functional Genomics Laboratory (NCATS/FGL), 2020).

Screen size: about 53,000 sequences; about 3,700 (7%) were called active.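 How the source made its calls: active means gene knockdowns whose robust z-score for IL-1 alpha signal is at least 2 or at most -2, so actives lie on both sides; inactive means the rest.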 This is one part of the list.

This assay in a line: Components of the Cytosolic LPS Sensing Pathway: Gene Identification via Genome-wide siRNA Screen.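 Further: robust z of the log signal after scaling to non-targeting control siRNA wells of the plate.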 As to conditions: RAW264.7 macrophages, IL-1a HTRF, actives lie on both sides, screened at 100 nM (by protocol), cells primed 5 h with Pam3CSK4 first. The gist of the method: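 IL-1a HTRF of supernatants after 24 hour LipidA transfection of Pam3CSK4-primed (5 hours) RAW264.7 cells, 48h post-siRNA transfection (100 nM). Scores: percent of plate negative-control median, then log-based robust z-score.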
Background: In TR-FRET formats the signal depends on donor and acceptor labels being close together.
Take GGACAAAGACUUCCUUGUUTT against Gstt1: the z-score is inactive: -0.99. For GGAAGAGGAGAAGAGCAUGTT against Lgals6 the value was inactive: 0.404; for GGAGCAUUUUCCAGUUGAGTT against Mrps35, active: 2.41; for GGGCUCCUGAGCCUCUUAATT against Sprr1a, active: 2.29.

In the case of GGACUAUGAAGAGCUAGAGTT against Luzp2, the z-score is inactive: -0.423.

GCAGCUUCAAGCUAAUUGATT against Tram1l1: the z-score was inactive: 0.0136. For GCUACAUUUACAAUGGAUUTT against Fam160a1 the value was inactive: 1.26.

As for GGCCAAGCACGAUAAAUACTT against Stub1, the z-score was inactive: -1.08. In the case of GCUUUCAUAGCUGGAAACCTT against Olfr173, the z-score was inactive: 0.452. Take CCACCAUCGUUACGUACCATT against Stt3a: the z-score was inactive: -0.571. GGAUAAGAUCAAUGCCCUCTT against Rplp1: the z-score was inactive: 0.27. For GGGUUUCCUACAGAGUACCTT against Amer3 the value was inactive: -0.845; for GCAACGACAAACGAAGUGATT against Cdx2, inactive: 0.307; for CCCAAUAUGCAUAAAACAATT against Azi2, inactive: -0.472. Take GGCUGUCCAUAUCAUCUACTT against Cxcr4: the z-score is inactive: 0.673. For GGGUGAGCUCACGUUCUUUTT against Trim50, the z-score was inactive: -0.519. As to GGUGUUCUGUAUCUUGUUCTT against Ndn, the z-score was inactive: 0.572.

Consider GGUUUGACUAUUUCAGUGATT against Klrb1c, for which the z-score was inactive: 0.251.

For the sequence GGCUGAAGACAAAACCUGUTT against Zfp418, the z-score was inactive: 1.28. Turning to CCCGAACAGAUCUUGUCGATT against Hoxd10, the z-score was inactive: -0.362. As to CGCUAUUUGAAAUCUCCAATT against Rgs9, the z-score is inactive: 0.232. In the case of “CCGUCGUGGGUGAUAUCAUTT against 2310022A10Rik”, the z-score was inactive: -0.0389. In the case of GGAGUCUGUCUUAUCAUUUTT against Bmerb1 it was inactive: 1.73; in that of GCUUUGAACGGCGAUAUCATT against Wdtc1, inactive: -0.119; in that of GGAAGGACCACGACUCAUATT against Sult2a2, inactive: -0.507.

As for CCAAACAACCAGCUAAUAUTT against Mia3, the z-score was inactive: -0.375. As to GCUGGGUAACCGCUAUCAATT against Ubtd1, the z-score was inactive: 1.85. For “GCAACAAAGGUGCCGAAACTT against B330016D10Rik” the value was inactive: 0.292; for CCUACGUGAUCAACAAGCATT against Fxn, inactive: 0.682; for GCCCUCAGAAGACGACGAUTT against Lat2, inactive: 0.977. For GCCGUAUUUUGCUUGUUUCTT against Gpr35 the value was inactive: 1.86; for GGCAUGGAAUGAGCUUUUCTT against Nr2e3, active: 3.83; for GGGCCAUGAUAGGACACACTT against Nme4, active: 2.97. In the case of GGGAAUGGCACCAUUUUCUTT against Pbp2 it was inactive: 0.729; in that of GGAGCUCUGUCAUGAGUUUTT against Colgalt2, inactive: -0.239; in that of GGGACUUCAUUGCUACUAATT against B9d2, inactive: 1.39. With CCCUCUACACUAUACCACATT against Olfr347, the z-score is inactive: -0.498.

Turning to GGAGCUGUGAGCAUUACUGTT against Cenpm, the z-score was inactive: -1.89. On to GGUUGUGCUGAUAUUUUACTT against Lmbr1l, for which the z-score is inactive: 0.248.

With GGGAUAAAAACCAUGGUUUTT against Pramel27, the z-score is inactive: 0.113.

Regarding GCGUGGUGUAUUUGAAUCATT against Ch25h, the z-score was active: 2.31. For GGUAGUGAAAAUGAAGAGUTT against Gtf2h1, the z-score was inactive: 0.892. In the case of GCAUUCAAUUCUCUAUGGUTT against Cybc1 it was inactive: 0.674.

As for GGUGUUUGAAAAGAAGAACTT against Tmcc2, the z-score was inactive: 0.71.

On to GGGUUUUGCCUUUGUCUAUTT against Supt4a, for which the z-score is inactive: -0.517. In the case of GGUUGCCAUAGCUUCUCGGTT against Abcg1 it was inactive: -1.1; in that of CCAAGUACUUGAGAGAGACTT against Creb3l1, inactive: -1.06; in that of GGCGAGGUACUUCCUACCUTT against Nipa1, inactive: 1.28. For CCACCUCAAGAUAUGGAUGTT against Ppp6r3 the value was inactive: -0.201; for GCAUCAAUAUCAUUAUUCCTT against Olfr917, inactive: -0.356; for GGACCUUAAGAGAUAUCAATT against Acsm4, active: 2.9. For the sequence CCUUCAUGAGUCCUCUUCATT against Gaa, the z-score is active: -2.08. For CGAAUGCUUAUUUAGGUUGTT against Kpna4, the z-score was inactive: -0.387. For GGUGAAAAGAUCAGAAUACTT against Fahd1 the value was inactive: -1.03; for CCUUGUGUCACUACCCACATT against Nr5a1, inactive: -1.22. In the case of GCACACAUGUAGUCUUAUATT against Hars2 it was inactive: -0.196. Take GGGUUGAUUGACGAAGCCATT against Fga: the z-score was inactive: -1.75. For CGGCACCUAUGAGUCUUACTT against Cyp4x1 the value was active: 2.13; for CCCUCAUAGUAACAGGAUGTT against Gm5069, inactive: 1.24; for GGUCUGAUAACUCUGGAGGTT against Snf8, inactive: -0.0859. For CGAGCACCUAUUCAUCAUATT against Tdo2 the value was inactive: 0.889. For GCAUGAUGUGGAGACAAGATT against Lce3b the value was inactive: 0.295. Take GGUGAUCCUCAUAUUGGCCTT against Npy2r: the z-score is inactive: -0.521.

Regarding CCUAUUUUUUCUCCACUGATT against Sntg1, the z-score is inactive: -0.533. As to GGAUUAGGAAACGUGUAUUTT against Kdm3b, the z-score was inactive: -1.11. For GCGUAUAUAAUUGAGGACUTT against Zfhx4, the z-score was inactive: -0.166. In the case of GGAGUUCCUUCAGCAAUAUTT against Sdad1 it was inactive: -0.281; in that of GGACUUAGAUCGGAUCAGUTT against Mdm1, inactive: -1.53; in that of GGUGACUAGAAAAAUGGAUTT against Cd1d1, inactive: 0.528. For GGACAGUAUGGAAAAGUAUTT against Map3k4 the value was inactive: -0.529.

As for AGGGCACAAAAGGUGACAATT against Rph3al, the z-score was inactive: -0.887. For GCUUAGCCUCGGAAUGUGGTT against Trappc6a the value was inactive: 0.139; for GGUACUUAUGUGGAUUGGATT against Rint1, inactive: -0.272; for CCAUUGCUGUUGUGGUUGATT against H2-Q7, inactive: 0.277. On to GGACAUGAAGUUGUGUGAGTT against Trim26, for which the z-score is inactive: -0.243.

Turning to GGUGAAACUAAAAAUGGUCTT against Egfl6, the z-score is inactive: -1.07. Regarding GGCUAUGCAGCAUAUUAUATT against Ndufa1, the z-score is inactive: 1.22. For GCAAACCUGAAGUUUAUGATT against Rps19bp1 the value was inactive: -0.321; for GCACUGAACUUUCCUGACCTT against Ppdpf, inactive: 1.78; for UAAGGCCAUCUAGUGGAGATT against C8g, inactive: -0.199. In the case of GGACUUUAUUGAAAAUCUGTT against Zfp365, the z-score was inactive: 0.593. As to GCUACAAGCGAUAUAUUCCTT against Jak1, the z-score was inactive: 1.8. For GCCUUUCCACCGAUGAAAUTT against Dpyd the value was inactive: -0.473; for GGAAUCAUUUGAAUCAGGATT against Swt1, inactive: -0.592; for GGGCUGUUUAACAAGAUCATT against Mthfsd, inactive: 1.51.

On to GCUCAAUUGUUCUUCUUUUTT against Olfr806, for which the z-score is inactive: -1.13. For the sequence CGACUAUUUGGGUGGCAAGTT against Scin, the z-score is inactive: -0.103.

As to GGCAUUCAGAAACAUGGUUTT against Esx1, the z-score is inactive: -1.5.

For the sequence GCUCUUAAUCCUAUCUAUCTT against Rgs9bp, the z-score is inactive: 0.0012. Consider GCCACUACUUAGUGUCUUCTT against Plcd1, for which the z-score is inactive: 0.0041. With CCAGUCUUAUCUGUAGAAGTT against Obox1, the z-score was inactive: -1.69. In the case of GCAUGCUUUCUGAAUACAATT against Cdk8 it was active: 2.17; in that of GGUUUAGGAUUUUUUGUUGTT against Ccr5, inactive: 0.121; in that of GGAUAAUUGGGAUGAUGACTT against Sem1, active: -2.24.

In the case of GGUUAAUCUGAGAAUUCUATT against Kcnk1, the z-score is inactive: 0.717.

Turning to CCAACUUUAUCUAAGGUGCTT against Bhmt, the z-score was inactive: -0.349.

GGUGAUAAAGCCAAGCAAATT against Vps4b: the z-score was inactive: -0.48. For the sequence GGAUAAAAUUGAGUCUAUGTT against Was, the z-score is inactive: 1.81.

Take GGGUGAGUCACGAAAGUCATT against Epor: the z-score was inactive: -0.453. In the case of GCAUGCAUCUUCCUUCGACTT against Cabp2, the z-score was inactive: -1.4.

As for GGAAGACAUUCACGAUUGUTT against Deptor, the z-score was inactive: -0.0976.

Take GGGACAAGAAGAACAAGAGTT against Srp14: the z-score is inactive: -1.33. For GGCUGUCUUCUGAAGGACATT against Mrpl43 the value was inactive: -0.429; for GUGCAGUUGUGACAAUAUATT against Pramel3, inactive: -1.23; for GGACUUCAACUUGAUGGAGTT against Add2, active: 2.02. In the case of CGAAAUGACAGUGUUAUUCTT against Mpl it was inactive: 0.185; in that of CGAUUGUAUAGCUUUUAAGTT against Gfpt2, inactive: 0.489. In the case of GCUCCAUACACGAAUGAGCTT against Lpar1 it was inactive: 0.347.
